# In PMC7468108 (Communications Biology, 2020):
# Further values from the same series stand in other lists.
# Target: T1, pre-formed fibrils of hIAPP (Homo sapiens, UniProt P10997)
# T1 construct: hIAPP is a 37-amino acid neuroendocrine peptide hormone; purchased Peptide 2.0 (USA)
# T1 sequence (P10997 34-70 limits assumed): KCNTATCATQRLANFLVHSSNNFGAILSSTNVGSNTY
# Experiment: CD spectroscopy of pre-formed hIAPP fibrils with the tested molecules
# Settings: hIAPP : molecule (1:5)
# Protocol: For efficient treatment of proteinopathies it may be advantageous to disassemble amyloid aggregates/fibrils which are usually already present at the time of diagnosis[75]–[77]. […] Then, various doses of the hybrid molecules were added to the pre-formed fibrils and the mixtures were incubated for additional 10 h. The process of disaggregation was monitored by ThT-binding assay, CD spectroscopy, TEM and Congo red staining (Fig. 5).
# The blank was subtracted from the acquired CD spectra. For the CD study in the presence of the tryptophan-galacosylamine molecules, the spectra of hybrid molecules were also recorded separately and subtracted from the respective sample spectra. The normalized data were plotted using Origin pro 2015 software.
smiles,measurement,setting,value
NC(Cc1c[nH]c2ccccc12)C(=O)NC(Cc1c[nH]c2ccccc12)C(=O)O (centres unmarked) [WW],Normalized CD spectra,wavelength 213.50,-689414.30
same,Normalized CD spectra,wavelength 214.00,-712935.97
same,Normalized CD spectra,wavelength 214.50,-736109.66
same,Normalized CD spectra,wavelength 215.00,-754910.60
same,Normalized CD spectra,wavelength 215.50,-771687.88
same,Normalized CD spectra,wavelength 216.00,-789854.61
same,Normalized CD spectra,wavelength 216.50,-797307.36
same,Normalized CD spectra,wavelength 217.00,-807160.37
same,Normalized CD spectra,wavelength 217.50,-812228.62
same,Normalized CD spectra,wavelength 218.00,-814026.86
same,Normalized CD spectra,wavelength 218.50,-814127.55
same,Normalized CD spectra,wavelength 219.00,-809702.10
same,Normalized CD spectra,wavelength 219.50,-806607.28
same,Normalized CD spectra,wavelength 220.00,-789530.91
same,Normalized CD spectra,wavelength 220.50,-771743.58
same,Normalized CD spectra,wavelength 221.00,-750973.22
same,Normalized CD spectra,wavelength 221.50,-730100.85
same,Normalized CD spectra,wavelength 222.00,-703709.13
same,Normalized CD spectra,wavelength 222.50,-679655.54
same,Normalized CD spectra,wavelength 223.00,-649856.36
same,Normalized CD spectra,wavelength 223.50,-625066.07
same,Normalized CD spectra,wavelength 224.00,-597591.79
same,Normalized CD spectra,wavelength 224.50,-572308.76
same,Normalized CD spectra,wavelength 225.00,-549190.55
same,Normalized CD spectra,wavelength 225.50,-529135.62
same,Normalized CD spectra,wavelength 226.00,-504549.52
same,Normalized CD spectra,wavelength 226.50,-482516.27
same,Normalized CD spectra,wavelength 227.00,-463615.10
same,Normalized CD spectra,wavelength 227.50,-440899.17
same,Normalized CD spectra,wavelength 228.00,-429583.60
same,Normalized CD spectra,wavelength 228.50,-411639.04
same,Normalized CD spectra,wavelength 229.00,-391797.81
same,Normalized CD spectra,wavelength 229.50,-375118.81
same,Normalized CD spectra,wavelength 230.00,-362277.05
same,Normalized CD spectra,wavelength 230.50,-354884.11
same,Normalized CD spectra,wavelength 231.00,-348941.62
same,Normalized CD spectra,wavelength 231.50,-338837.25
same,Normalized CD spectra,wavelength 258.50,-99787.90
same,Normalized CD spectra,wavelength 259.00,-103215.58
same,Normalized CD spectra,wavelength 259.50,-106940.42
same,Normalized CD spectra,wavelength 260.00,-110962.43
